According to publication PMC12753876 (2025):

B1: CRY1^(PHR WT) in pGADT7 (AD) [Arabidopsis thaliana] / HsFA3^WT in pGBKT7 (BD) [Arabidopsis thaliana] (parent complex)
chain 1: MSGSVSGCGSGGCSIVWFRRDLRVEDNPALAAAVRAGPVIALFVWAPEEEGHYHPGRVSRWWLKNSLAQLDSSLRSLGTCLITKRSTDSVASLLDVVKSTGASQIFFNHLYDPLSLVRDHRAKDVLTAQGIAVRSFNADLLYEPWEVTDELGRPFSMFAAFWERCLSMPYDPESPLLPPKKIISGDVSKCVADPLVFEDDSEKGSNALLARAWSPGWSNGDKALTTFINGPLLEYSKNRRKADSATTSFLSPHLHFGEVSVRKVFHLVRIKQVAWANEGNEAGEESVNLFLKSIGLREYSRYISFNHPYSHERPLLGHLKFFPWAVDENYFKAWRQGRTGYPLVDAGMRELWATGWLHDRIRVVVSSFFVKVLQLPWRWGMKYFWDTLLDADLESDALGWQYITGTLPDSREFDRIDNPQFEGYKFDPNGEYVRRWLPELSRLPTDWIHHPWNAPESVLQAAGIELGSNYPLPIVGLDEAKARLHEALSQMWQLEAASRAAIENGSEE
chain 2: MSPKKDAVSKPTPISVPVSRRSDIPGSLYVDTDMGFSGSPLPMPLDILQGNPIPPFLSKTFDLVDDPTLDPVISWGLTGASFVVWDPLEFARIILPRNFKHNNFSSFVRQLNTYGFRKIDTDKWEFANEAFLRGKKHLLKNIHRRRSPQSNQTCCSSTSQSQGSPTEVGGEIEKLRKERRALMEEMVELQQQSRGTARHVDTVNQRLKAAEQRQKQLLSFLAKLFQNRGFLERLKNFKGKEKGGALGLEKARKKFIKHHQQPQDSPTGGEVVKYEADDWERLLMYDEETENTKGLGGMTSSDPKGKNLMYPSEEEMSKPDYLMSFPSPEGLIKQEETTWSMGFDTTIPSFSNTDAWGNTMDYNDVSEFGFAAETTSDGLPDVCWEQFAAGITETGFNWPTGDDDDNTPMNDP
B2: CRY1^(PHR WT) in pGADT7 (AD) [Arabidopsis thaliana] / HsFB2b^WT in pGBKT7 (BD) [Arabidopsis thaliana] (parent complex)
chain 1: B1 chain 1
chain 2: MPGEQTGETPTVAGVGGGGAGCSAGNSGGSSGCGAGGGGGGSGGGGGGGGDSQRSIPTPFLTKTYQLVEDPVYDELISWNEDGTTFIVWRPAEFARDLLPKYFKHNNFSSFVRQLNTYGFRKVVPDRWEFSNDCFKRGEKILLRDIQRRKISQPAMAAAAAAAAAAVAASAVTVAAVPVVAHIVSPSNSGEEQVISSNSSPAAAAAAIGGVVGGGSLQRTTSCTTAPELVEENERLRKDNERLRKEMTKLKGLYANIYTLMANFTPGQEDCAHLLPEGKPLDLLPERQEMSEAIMASEIETGIGLKLGEDLTPRLFGVSIGVKRARREEELGAAEEEDDDRREAAAQEGEQSSDVKAEPMEENNSGNHNGSWLELGK

Variants of: B1
Test: yeast two-hybrid (beta-galactosidase, Miller units); n=3; parent: 280; read off a plot

Row | Variant | response
1 | chain 2 E173R | ~210 Miller Units

Variants of: B1
Test: as above
Remark: another data set of the same source

Row | Variant | response
2 | chain 2 K174A, chain 2 K177A, chain 2 E178A | ~150 Miller Units

Variants of: B2
Test: yeast two-hybrid (beta-galactosidase, Miller units); n=3; parent: 0.07; read off a plot

Row | Variant | response
3 | chain 2 K249E | ~0.1 Miller Units
